# Reference: paper PMC7819943, “Rice protein-binding microarrays: a tool to detect cis-acting elements near promoter regions in rice”
# This is one part of the list.
# Target: T1, OsSMF1 (Oryza sativa, UniProt Q6ZLB0 1-436)
# T1 sequence: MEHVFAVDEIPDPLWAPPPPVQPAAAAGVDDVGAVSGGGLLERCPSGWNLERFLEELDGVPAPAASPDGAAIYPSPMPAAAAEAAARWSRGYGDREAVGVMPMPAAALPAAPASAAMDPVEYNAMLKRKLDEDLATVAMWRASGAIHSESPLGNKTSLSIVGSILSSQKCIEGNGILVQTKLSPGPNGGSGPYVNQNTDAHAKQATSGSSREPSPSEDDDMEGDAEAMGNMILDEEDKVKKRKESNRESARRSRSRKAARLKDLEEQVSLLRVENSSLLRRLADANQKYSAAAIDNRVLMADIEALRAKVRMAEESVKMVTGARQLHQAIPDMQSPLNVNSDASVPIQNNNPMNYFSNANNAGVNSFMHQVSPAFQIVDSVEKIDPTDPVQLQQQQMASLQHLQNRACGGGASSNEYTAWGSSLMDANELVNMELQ
# Test: protein-binding microarray (RPBM); PBS, 2% BSA, 51.3 ng/ul salmon testes DNA, 50 uM zinc acetate, 200 nM TF, 25 C, 1 h; high values mean tight binding
# Settings: protein: recombinant; tags: N-terminal polyhistidine and DsRed monomer fusion (pET32a); chain copies: 2; label: CyDye5-dUTP incorporated in the synthesized complementary strand; 3' TTTTT single-stranded linker to array surface; dsDNA, one strand shown
# In short: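 Transcription factors, each fused N-terminally to a polyhistidine tag and DsRed, were expressed in E. coli BL21-CodonPlus and purified on Ni–NTA. A custom Agilent array was made double-stranded by primer extension with Cy5-dUTP and blocked with 2% BSA. It was incubated with 200 nM protein in PBS, 2% BSA, salmon testes DNA and 50 µM zinc acetate at 25 °C for 1 h, then washed. The binding signal is per-feature fluorescence intensity (arbitrary units) read on an Axon 4000B scanner.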
row,Sequence,binding signal
1,TCGTTTACCCTTATATTTCGAAGCTGTAGCCTCGTCAAGTCGGAGTCACCTAGTGCAG,3430 fluorescence intensity (a.u.)
2,AATCATGTTGGCACAACTTTGATTTAACTGATAGAACAAACGGAGTCACCTAGTGCAG,12200 fluorescence intensity (a.u.)
3,TGATTGTTTAACCAAAATATATGCAATTGACTAAGCAAAACGGAGTCACCTAGTGCAG,3220 fluorescence intensity (a.u.)
4,GAACGACCCGAACTTATGACTCATTTATGGTTTGTTTCTCCGGAGTCACCTAGTGCAG,8680 fluorescence intensity (a.u.)
5,CCCCACGTCGGCCTCTTCTGACGTATAGTGCGTAGTAGCTCGGAGTCACCTAGTGCAG,5310 fluorescence intensity (a.u.)
6,CGAGCATGGCCCACACGTCAGCCACCTACCTGCCTAGAGGCGGAGTCACCTAGTGCAG,12300 fluorescence intensity (a.u.)
7,ATATATATATATATATATATATGGAATACATCATATCCAACGGAGTCACCTAGTGCAG,3400 fluorescence intensity (a.u.)
8,AACATGGCGTCTACGTGGCAGTATTGACTAGGTCTTCGTCCGGAGTCACCTAGTGCAG,17000 fluorescence intensity (a.u.)
9,GTTGAGTCGGGTGTCCCAGAGACACGTTTGTTAGGCAGCGCGGAGTCACCTAGTGCAG,4220 fluorescence intensity (a.u.)
10,AATATGGATTATTACCAAGAATTTATCCGTTGTTTTGCTACGGAGTCACCTAGTGCAG,40700 fluorescence intensity (a.u.)
11,AGCAGATCACCTCAGCTTCAACTGCCCTTTTGCTATCAGTCGGAGTCACCTAGTGCAG,3250 fluorescence intensity (a.u.)
12,CTCTCCTCTCCTCGCGAGTTTCCTCATCAAAATCGCCTTCCGGAGTCACCTAGTGCAG,3140 fluorescence intensity (a.u.)
13,GTTGCGACAACAATCTGACTAAGACAGAAGCTGTAGCCTTCGGAGTCACCTAGTGCAG,3720 fluorescence intensity (a.u.)
14,GTGGGTCCCACGCTGACTCAGCCGCCACGTAGACTAAAACCGGAGTCACCTAGTGCAG,23600 fluorescence intensity (a.u.)
15,ACGCGTCTTCCTGCCCATCCCCGGCGGCGGCGGCGGCGTCCGGAGTCACCTAGTGCAG,25600 fluorescence intensity (a.u.)
16,GTATATTCTCAGCTTCAATATTATTAACGTTGTCATATTGCGGAGTCACCTAGTGCAG,3450 fluorescence intensity (a.u.)
17,TTCCGCTCTCGCTAGCTATACGCCTATACCCCACCCGTCGCGGAGTCACCTAGTGCAG,30800 fluorescence intensity (a.u.)
18,GCAGTGGTACTCGGTGTGACCTGGTGGAGGCCGTGCTCTCCGGAGTCACCTAGTGCAG,3400 fluorescence intensity (a.u.)
19,TTGTTTGTCAGATGTAGTGTGCATGTGTGGCATTGCATCACGGAGTCACCTAGTGCAG,4070 fluorescence intensity (a.u.)
20,GAGTTGGTGTGGGTGGGATTGGCATTGTATCGTGAGAGAGCGGAGTCACCTAGTGCAG,3170 fluorescence intensity (a.u.)
21,AGTGCGAAGTTTGGTGTGTCGTTGTCACGTAACCTTCCCTCGGAGTCACCTAGTGCAG,3240 fluorescence intensity (a.u.)
22,ACCAGACCCACCTGTCAGTGACGCGGTTCGGACGAATCCCCGGAGTCACCTAGTGCAG,5120 fluorescence intensity (a.u.)
23,GCACATAGGTGTAGTGTTTGCGTGCGTGTCTTCATAAGAGCGGAGTCACCTAGTGCAG,3500 fluorescence intensity (a.u.)

# Some of the entries so far, with bars between the fields:
row | Sequence | binding signal
2 | AATCATGTTGGCACAACTTTGATTTAACTGATAGAACAAACGGAGTCACCTAGTGCAG | 12200 fluorescence intensity (a.u.)
19 | TTGTTTGTCAGATGTAGTGTGCATGTGTGGCATTGCATCACGGAGTCACCTAGTGCAG | 4070 fluorescence intensity (a.u.)
